Hit rate of the full screen: of about 2,000 compounds, about 190 (9.5%) were called active. Roughly 14% stayed inconclusive and do not appear here.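 Rule for the calls: active = fitted activation curve crossing 40% at a concentration no higher than the sample's top valid tested dose; inconclusive = flat fitted curve at 30% to 70% activation, or poor curve fit; inactive = signal decrease, flat curve within 30%, or the rest.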 The list lacks most of the strong results.
Experiment: sustained heat shock response element induction – cell-based, mouse, luciferase, cherry-pick, dose, confirmation (AID 602296);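 note: test compounds applied by themselves with no MG132 co-treatment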
Conditions: NIH3T3-HGL HSF-1 response element luciferase, 48 h; at 26 µM (top of the series) unless noted

activation, inactive:
COc1cccc(CNc2nc3ccccc3n2C(C)C)c1O -2.24%
Clc1ccccc1CN(Cc1ccco1)Cc1nnnn1C1CCCC1 -13.9%
Cc1cccc(N(C(=O)c2ccc(CN3CCOCC3)o2)C(C(=O)NC(C)(C)C)c2ccc(F)cc2)c1 (centres undefined) -14.6%
O=C(COC(=O)C1CCN(S(=O)(=O)c2cccc3cccnc23)CC1)c1ccc([N+](=O)[O-])cc1 -12.1%
c1ccc(Nc2c(-c3ccco3)nc3ccccn23)cc1 10.6%
N#C/C(=C\c1cn(Cc2ccccc2)c2ccccc12)C(=O)NCc1ccco1 -9.67%
CCCCCn1c(N2CCN(c3cccc(Cl)c3)CC2)nc2c1c(=O)[nH]c(=O)n2C -78.6%
COc1ccc(C(=O)NC2CCN(C(=S)NCc3ccco3)CC2)cc1 -5.5%
COCC(C)NC(=O)/C(=C/c1ccccc1)c1ccccc1 (centres undefined) -20.2%
Cc1cc(C)cc(OCC(=O)O/N=C(\N)Cc2ccc([N+](=O)[O-])cc2)c1 2.64%
Nc1cc[n+](CC(=O)Nc2ccccc2)cc1 -6.73%
O=C(Nc1cccc(Cl)c1)N(Cc1nc2ccccc2c(=O)[nH]1)C1CCCC1 23.3%
O=C(/C=C/c1cccc([N+](=O)[O-])c1)NC(=S)Nc1ccc(CN2CCOCC2)cc1 -17.4%
O=C(c1ccc(Cl)c(S(=O)(=O)NCc2ccco2)c1)N1CCN(c2ccccc2F)CC1 0.244%
CC(C)(C)NC(=O)C(c1ccncc1)N(C(=O)Cn1nnc(-c2cccs2)n1)C1CCCCC1 (centres undefined) -8.31%
CC(=O)Nc1ccc(Nc2nc3c(S(=O)(=O)c4ccc(C)c(C)c4)nnn3c3ccccc23)cc1 6.09%
Cc1cc2occ(CC(=O)NCc3cccs3)c2cc1C(C)C -46.7%
COc1ccc(NC(=O)c2nn(C)c(=O)c3ccccc23)cc1S(=O)(=O)Nc1ccccc1Cl -50.5%
COc1ccc(/C=C2\SC(=S)N(CCC(=O)Nc3cccc(O)c3)C2=O)cc1 -2.93%
CC1CCCN(C(=O)c2ccccc2OC2CCN(S(C)(=O)=O)CC2)C1 (centres undefined) 0.657%
O=C1C=C(Nc2ccccc2C(=O)O)c2ccccc2C1=O -48%
CCc1ccc(CN(C)C(=O)CCc2nc3ccccc3n(-c3ccc(OC)cc3)c2=O)cc1 -16.4%
COc1ccc(NC(=O)COc2cccc3c2CCN(Cc2cccnc2)C3=O)c(OC)c1 5.52%
CC1(C)CC(CCN)(Cc2ccccc2Cl)CCO1 (centres undefined) -7.19%
CCOC(=O)c1cnc2ccc(OC)cc2c1Nc1ccc(N2CCN(C)CC2)cc1 -68%
Cc1cc(C)c(S(=O)(=O)N2CCCC(C(=O)NCCC3=CCCCC3)C2)c(C)c1 (centres undefined) -25.8%
O=C(O)CCc1ccc(-c2ccc(Br)cc2)n1Cc1ccco1 -6.11% [at 12 µM]
O=C(CN(C(=O)c1ccccc1Cl)C1CCCCC1)Nc1ccc(Cl)c([N+](=O)[O-])c1 -58.9% [at 12 µM]
CCc1ccc(NC(=O)COC(=O)/C=C/c2c(C)nn(C3CCS(=O)(=O)C3)c2Cl)cc1 (centres undefined) -19.6%
Cc1ccc(C(C(=O)NC2CCCCC2)N(C(=O)Cc2c[nH]c3ccccc23)c2ccccc2)o1 (centres undefined) -45.7%
COCCn1c(SCC(=O)NC2CCCCC2)nc2c(c1=O)SCC2 8.51%
Cc1ccc(CC2SC(=Nc3ccccc3)N(c3ccccc3)C2=O)cc1 (centres undefined) -38.1%
CCCCSc1nc(C)cc(SCC(=O)N/N=C/c2cccc(OC)c2O)n1 -25.2%
Cc1nnc(SCC2=C(C(=O)O)N3C(=O)C(NC(=O)c4cccc(F)c4F)C3SC2)s1 (centres undefined) 16.7%
CCCCNC1C(CC)C(CCC)C(C#N)(C#N)C1(C#N)C#N (centres undefined) -20.6%
O=C(OC1CCOC1=O)c1cc(Cl)ccc1[N+](=O)[O-] (centres undefined) 4.06%
COC(=O)c1cc(S(=O)(=O)N2CCN(c3ccc([N+](=O)[O-])cc3)CC2)c[nH]1 -13.3%
CCCCN(C(=O)/C=C/c1ccco1)c1c(N)n(CCC)c(=O)[nH]c1=O -5.28%
Cc1ccc(-c2nc3ccccc3[nH]2)cc1NC(=O)c1ccc2c(c1)OCO2 3.91%
CCOC(=O)C(=Cc1c[nH]c2ccc(S(=O)(=O)N(C)C)cc12)C(=O)OCC -8.52% [at 12 µM]
CC(C)CC(/C(O)=C(\C#N)c1nc2ccccc2[nH]1)N1C(=O)c2ccccc2C1=O (centres undefined) -39.8%
COc1ccc(-c2c(C)nn3c(NC4CCCC4)cc(C)nc23)cc1OC -25.6%
CCOc1ccccc1CN1CCNC(=O)C1CC(=O)NCc1nccn1CC (centres undefined) 4.52%
CCOC(=O)c1c(C)[nH]c(C)c1S(=O)(=O)N1CCN(c2cccc(C)c2)C(C)C1 (centres undefined) -26.1%
COc1ccc(C)cc1NC(=O)C/C(C)=N/NC(=O)Cc1cccc2ccccc12 -16.4%
CC[C@@H]1[C@H]2CCCC(=O)N3CC[C@@H](C[C@@H]1Nc1ccccc1)[C@@H]23 6.78%
Cc1cc(C)c(S(=O)(=O)Nc2cccc(/C=C/C(=O)O)c2)c(C)c1 9.61%
O=C(COc1ccccc1)NC(=S)Nc1cccc2cc(O)ccc12 -35.6%
O=C(c1ccc(F)cc1F)C1CCN(c2ccc([N+](=O)[O-])cn2)CC1 -5.54%
CCOC(=O)COc1ccc(/C=C/[N+](=O)[O-])c(OCC(=O)OCC)c1 -102%
Cc1nn(C)c(Oc2ccccc2)c1CCNS(=O)(=O)c1ccc(Cl)cc1 -52.3%
CC(C)CCNC1c2ccccc2C(=O)N1Cc1ccccc1 (centres undefined) -1.01%
O=C(NC1C2CC3CC(C2)CC1C3)C1CC1 (centres undefined) -5.94%
CCOc1ccc(-n2c(=S)sc3c(=O)[nH]c(SCC(=O)NC(C)CC)nc32)cc1 (centres undefined) -4.48%

Part of the list above in order of number of heavy atoms, high to low.
activation, inactive:
CCc1ccc(CN(C)C(=O)CCc2nc3ccccc3n(-c3ccc(OC)cc3)c2=O)cc1 -16.4%
CCOC(=O)COc1ccc(/C=C/[N+](=O)[O-])c(OCC(=O)OCC)c1 -102%
Cc1cc2occ(CC(=O)NCc3cccs3)c2cc1C(C)C -46.7%
O=C(OC1CCOC1=O)c1cc(Cl)ccc1[N+](=O)[O-] (centres undefined) 4.06%
